# Among all 320,000 compounds or so, about 2,100 (0.66%) were called active. This list was built around the results that the source calls inconclusive (neither active nor inactive); the mix of calls is not that of the screen. Calls come from the whole dose curve; as a rule, active = well fitted inhibition curve with a large enough effect in the signal ratio, with a control signal flat (not every such curve was filed as active); inconclusive = small, poorly fitted or top-dose-only effect, or effect the other way, or a change in a side signal; inactive = flat fitted curve, though single readings scatter; the % refers to the signal ratio. Potencies beside an inconclusive call are fits to weak or partial responses and may not hold up.
# Assay: qHTS Assay for Lipid Storage Modulators in Drosophila S3 Cells
# Conditions: BODIPY lipid droplet fluorescence, 18-24 h, cells fed with added oleic acid; lipid storage change, negative = inhibition: at 46.1 µM (top of the series) unless noted
# Method in brief: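 Laser-scanning cytometry quantifies lipid droplet accumulation (500–530 nm total intensity; droplet/cell object ratio) in oleic acid-fed (400 uM added) Drosophila S3 cells treated with a concentration series. 20 uM Triacsin C defined 100% inhibition.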
# % is set by controls: 0 for no effect and ±100 for the full control effect; potency is the fitted concentration of half-maximal effect.
SMILES,"lipid storage change, negative = inhibition",Potency,outcome
CCCC(=O)Nc1ccc(Br)cn1,inconclusive: -8.95%,–,–
Nc1nnc(CSCc2cccc(Br)c2)s1,inconclusive: -15.7% [at 9.22 µM],–,–
COc1ccccc1CNC(=O)COc1cc2c(c3oc(=O)cc(C)c13)CCC(C)(C)O2,inactive: -25.6%,–,–
COc1ccc(NC(=O)CN(C)C(=O)CCNC(=O)Nc2ccccc2)cc1,inconclusive: -23.7%,–,–
Cc1ccc(-c2nc(-c3ccccn3)no2)cc1Cl,inconclusive: 2.8%,–,–
COCCNC(=O)CC(=O)N/N=C/c1cccc(C(=O)OC)c1,inconclusive: 11.5%,–,–
Cc1nnc(SCC(=O)Nc2ccccc2F)n1-c1ccc(F)cc1,inconclusive: 7.07%,–,–
O=C(/C=C/c1ccc([N+](=O)[O-])cc1)/C=C/c1ccco1,–,"inconclusive: 29.1 µM [falling, single point]",–
CN1C(=O)CC(N2CCN(C(c3ccccc3)c3ccccc3)CC2)C1=O (centres undefined),inconclusive: -1.53%,–,–
COCCSc1nc2c(c(=O)[nH]c(=O)n2C)n1CCC(C)C,inconclusive: -8.28%,–,–
O=c1c(C=Nc2cccc(C(F)(F)F)c2)c[nH]n1-c1cccc(Cl)n1,inconclusive: 15.3%,–,–
CCOC(=O)CSc1nnc(NC(=O)c2ccc3c(c2)OCO3)s1,–,"inconclusive: 20.6 µM [activator, partial curve, poor fit]",–
COc1cccc(C2c3[nH]c4ccccc4c3CCN2Cc2cnn(C)c2)c1 (centres undefined),inconclusive: 26.3%,–,–
COc1ccc2cc(C(=O)N(C)Cc3ccccc3)[nH]c2c1,inconclusive: -12.3%,–,–
COc1ccc2c(c1)NC1(O)c3ccccc3C(=O)C21O (centres undefined),inconclusive: 9.64%,–,–
O=C(CN1CCCCCC1)Nc1ccc([N+](=O)[O-])cc1Br,inconclusive: -50.6%,–,–
O=C(NCC1CCCO1)c1nn2c(C(F)(F)F)cc(-c3cccs3)nc2c1Br (centres undefined),inconclusive: -77.4%,–,–
O=C(Nc1ccccc1N1CCCCC1)c1cc(S(=O)(=O)N2CCOCC2)ccc1F,inconclusive,–,–
COc1cccc(CNC(=O)c2cccnc2Sc2ccc(C)cc2C)c1,inconclusive: -3.37%,–,–
Cc1ccc(NC(=O)C(OC(=O)c2ccc(NC(N)=O)cc2)c2ccccc2)cc1Cl (centres undefined),–,"inconclusive: 29.1 µM [cytotoxic, single point]",–
COc1ccccc1N=Nc1c(C)[nH]n(-c2ccccc2)c1=O,–,active: 14.6 µM,–
N#CCCNS(=O)(=O)c1ccc(C(=O)OCCCOC(=O)c2ccc(S(=O)(=O)NCCC#N)cc2)cc1,–,"inconclusive: 29.1 µM [activator, single point]",–
CCN(CC)CCNC(=O)C(=O)Nc1cc2c3c(c1)CCN3C(=O)CC2,inconclusive: 72.3%,–,–
CCOc1ccc(C(=O)Nc2c(C(N)=O)oc3ccccc23)cc1,inconclusive: -16.5%,–,–
COc1ccc2c(c1)CCc1c(C(=O)N3CCCCCC3)noc1-2,inconclusive: -139%,–,–

# In the list so far, two contain a nitro group on carbon.
SMILES,"lipid storage change, negative = inhibition",Potency,outcome
O=C(/C=C/c1ccc([N+](=O)[O-])cc1)/C=C/c1ccco1,–,"inconclusive: 29.1 µM [falling, single point]",–
O=C(CN1CCCCCC1)Nc1ccc([N+](=O)[O-])cc1Br,inconclusive: -50.6%,–,–

# Later entries

SMILES,"lipid storage change, negative = inhibition",Potency,outcome
CCN(CC(=O)Nc1c(F)cccc1F)C(=O)c1cc2ccccc2oc1=O,inconclusive: 11.3%,–,–
Cc1cc2c(cc1C)CSC(c1c(O)ccc3ccccc13)SC2,–,"inconclusive: 29.1 µM [cytotoxic, single point]",–
COc1cccc(CN2CCNC(=O)C2CC(=O)N(C)CC2CCOCC2)c1OC (centres undefined),inconclusive: -2.95%,–,–
O=C(OC(C(=O)NCc1ccco1)C(OC(=O)c1ccccc1)C(=O)NCc1ccco1)c1ccccc1 (centres undefined),inconclusive: -8.56%,–,–
Cn1cnnc1SCNC(=O)C(F)(F)F,–,"inconclusive: 0.731 µM [falling, full curve]",–
Cc1nc2ccccn2c1C(=O)N/N=C/c1ccc(F)cc1,–,"inconclusive: 18.4 µM [activator, partial curve]",–
COCCCn1c(C(=O)NCCC2=CCCCC2)cc2c(=O)n3cccc(C)c3nc21,–,"inconclusive: 0.651 µM [falling, full curve]",–
CC(=O)c1ccc(C(=O)Nc2ccc(N3CCOCC3)cc2)cc1,inconclusive: -74%,–,–
Cc1ccc(CC(=O)N2CCN(S(=O)(=O)c3ccccc3)CC2)cc1C,–,"inconclusive: 29.1 µM [activator, single point]",–
COc1ccc(CCNC(=O)COC(=O)Cn2cnc3c2c(=O)n(C)c(=O)n3C)cc1,–,"inconclusive: 29.1 µM [falling, single point]",–
Fc1ccc(CNC(=S)Nc2ccc(Cl)cc2Cl)cc1,–,"inconclusive: 25.9 µM [falling, single point]",–
O=C(c1ccccc1Cc1ccccc1)N1CCN(S(=O)(=O)c2ccccc2F)CC1,–,"inconclusive: 29.1 µM [falling, single point]",–
Cc1cc(NC(=O)CSc2nnc(NCc3ccco3)s2)no1,–,"inconclusive: 4.61 µM [falling, partial curve]",–
Cc1oc(-c2ccccc2F)nc1CS(=O)(=O)CC(=O)NCCCN1CCN(C)CC1,–,"inconclusive: 29.1 µM [falling, single point]",–
CCOc1cc(C=O)ccc1OCCSc1ccc(C)cc1,inconclusive: -0.169%,–,–
O=C(NCCCN1CCOCC1)c1ccc(-n2nc(C(F)(F)F)cc2-c2cccs2)cc1,–,"inconclusive: 13 µM [activator, partial curve]",–
CCOc1ccc2[nH]c(=S)[nH]c2c1,inconclusive: 100%,–,–
CC(C)CNC(=O)COC(=O)c1cc(S(=O)(=O)N2CCCCC2)ccc1N1CCOCC1,inconclusive: 0.492%,–,–
COc1ccc(-c2cc(CNS(=O)(=O)c3cc(OC)ccc3OC)on2)cc1,inconclusive: -29.5%,–,–
COc1cc2c(cc1OC)CN(C(=O)c1cc(S(=O)(=O)N3CCOCC3)ccc1Cl)CC2,–,"inconclusive: 29.1 µM [activator, single point]",–
CC1Cc2ccccc2N1S(=O)(=O)c1cccc(C(=O)NCCCO)c1 (centres undefined),–,"inconclusive: 1.64 µM [activator, partial curve, poor fit]",–
COc1ccc(Oc2coc3c(CN4CCOCC4)c(O)ccc3c2=O)cc1,–,–,inactive [at 46.1 µM]
Cc1oc(/N=C/c2ccc(F)cc2)c(C#N)c1C,inconclusive: -1.9%,–,–
O=C(NCC1CCCO1)c1cccc(S(=O)(=O)N(Cc2ccccc2)c2ccccc2)c1 (centres undefined),–,"inconclusive: 1.84 µM [falling, full curve]",–

# From PubChem BioAssay AID2685 (National Center for Advancing Translational Sciences (NCATS), 2010)
